# Data: the supplement of paper PMC8728848
# The list shows a part of the results.
# B1: SUN4 (Saccharomyces cerevisiae), P53616 (protein)
# chain: MGSSHHHHHHSSGLVPRGSHNGSIYGDLADFSGPYEKFEDGTIPCGQFPSGQGVIPISWLDEGGWSGVENTDTSTGGSCKEGSYCSYACQPGMSKTQWPSDQPSDGRSIGGLLCKDGYLYRSNTDTDYLCEWGVDAAYVVSELSNDVAICRTDYPGTENMVIPTYVQAGDSLPLTVVDQDTYYTWQGLKTSAAYYVNNAGISVEDACVWGSSSSGVGNWAPLNFGAGSSDGVAYLSLIPNPNNGNALNFNVKIVAADDSSTVNGECIYENGSFSGGSDGCTVSVTAGKAKFVLYN
# Tests used:
# Test in all cases: glycan array binding signal (z-score within array); higher = stronger binding
# Conditions in all cases: glycan notation: IUPAC condensed, linker removed; mutation: Q318A
# [1] = molecular target: Neu5Ac(a2-6)Gal(b1-4)GlcNAc(b1-3)Gal(b1-4)GlcNAc(b1-3)Gal(b1-4)GlcNAc(b1-2)Man(a1-3)[Neu5Ac(a2-6)Gal(b1-4)GlcNAc(b1-3)Gal(b1-4)GlcNAc(b1-3)Gal(b1-4)GlcNAc(b1-2)Man(a1-6)]GalNAc
# Method in brief: (§1)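 Columns mapping to the same glycan were averaged after glycan names were converted to IUPAC-condensed notation. The data come from 3228 arrays in the Consortium for Functional Glycomics database, limited to those with an available protein sequence. Binding is reported as a within-array Z-score averaged across arrays of one protein sequence and across linkers.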
# [2] = molecular target: Neu5Ac(a2-6)Gal(b1-4)GlcNAc(b1-3)Gal(b1-4)GlcNAc(b1-3)GalNAc
# Method in brief: as §1
# [3] = molecular target: Neu5Ac(a2-6)Gal(b1-4)GlcNAc(b1-3)Gal(b1-4)GlcNAc(b1-3)[Neu5Ac(a2-6)Gal(b1-4)GlcNAc(b1-3)Gal(b1-4)GlcNAc(b1-6)]GalNAc
# Method in brief: as §1
# [4] = molecular target: Neu5Ac(a2-6)Gal(b1-4)GlcNAc(b1-3)Gal(b1-4)GlcNAc(b1-6)[Gal(b1-3)]GalNAc
# Method in brief: as §1
# [5] = molecular target: Neu5Ac(a2-6)Gal(b1-4)GlcNAc(b1-3)Gal(b1-4)[Fuc(a1-3)]GlcNAc(b1-3)Gal(b1-4)[Fuc(a1-3)]GlcNAc
# Method in brief: as §1
# [6] = molecular target: Neu5Ac(a2-6)Gal(b1-4)GlcNAc(b1-3)GalNAc
# Method in brief: as §1
# [7] = molecular target: Neu5Ac(a2-6)Gal(b1-4)GlcNAc(b1-3)[Neu5Ac(a2-6)Gal(b1-4)GlcNAc(b1-6)]GalNAc
# Method in brief: as §1
# [8] = molecular target: Neu5Ac(a2-6)Gal(b1-4)GlcNAc(b1-6)GalNAc
# Method in brief: as §1
# [9] = molecular target: Neu5Ac(a2-6)Gal(b1-4)GlcNAc(b1-6)[Gal(b1-3)GlcNAc(b1-3)]Gal(b1-4)Glc
# Method in brief: as §1
# [10] = molecular target: Neu5Ac(a2-6)Gal(b1-4)GlcNAc(b1-6)[Gal(b1-3)]GalNAc
# Method in brief: as §1
# [11] = molecular target: Neu5Ac(a2-6)Gal(b1-4)GlcNAc6S
# Method in brief: as §1
# [12] = molecular target: Neu5Ac(a2-6)GalNAc
# Method in brief: as §1
# [13] = molecular target: Neu5Ac(a2-6)GalNAc(b1-4)GlcNAc
# Method in brief: as §1
# [14] = molecular target: Neu5Ac(a2-6)GalNAc(b1-4)GlcNAc6S
# Method in brief: as §1
# [15] = molecular target: Neu5Ac(a2-6)GlcNAc(b1-4)GlcNAc
# Method in brief: as §1
# [16] = molecular target: Neu5Ac(a2-6)GlcNAc(b1-4)GlcNAc(b1-4)GlcNAc
# Method in brief: as §1
# [17] = molecular target: Neu5Ac(a2-8)Neu5Ac
# Method in brief: as §1
# [18] = molecular target: Neu5Ac(a2-8)Neu5Ac(a2-3)Gal(b1-3)GalNAc(b1-4)[Neu5Ac(a2-3)]Gal(b1-4)Glc
# Method in brief: as §1
# [19] = molecular target: Neu5Ac(a2-8)Neu5Ac(a2-3)Gal(b1-3)GalNAc(b1-4)[Neu5Ac(a2-8)Neu5Ac(a2-3)]Gal(b1-4)Glc
# Method in brief: as §1
# [20] = molecular target: Neu5Ac(a2-8)Neu5Ac(a2-3)Gal(b1-4)Glc
# Method in brief: as §1
# [21] = molecular target: Neu5Ac(a2-8)Neu5Ac(a2-3)Gal(b1-4)GlcNAc
# Method in brief: as §1
# [22] = molecular target: Neu5Ac(a2-8)Neu5Ac(a2-3)[Gal(b1-3)GalNAc(b1-4)]Gal(b1-4)Glc
# Method in brief: as §1
# [23] = molecular target: Neu5Ac(a2-8)Neu5Ac(a2-3)[GalNAc(b1-4)]Gal(b1-4)Glc
# Method in brief: as §1
# [24] = molecular target: Neu5Ac(a2-8)Neu5Ac(a2-8)Neu5Ac
# Method in brief: as §1
# [25] = molecular target: Neu5Ac(a2-8)Neu5Ac(a2-8)Neu5Ac(a2-3)Gal(b1-4)Glc
# Method in brief: as §1
# [26] = molecular target: Neu5Ac(a2-8)Neu5Ac(a2-8)Neu5Ac(a2-3)[Gal(b1-3)GalNAc(b1-4)]Gal(b1-4)Glc
# Method in brief: as §1
# [27] = molecular target: Neu5Ac(a2-8)Neu5Ac(a2-8)Neu5Ac(a2-3)[GalNAc(b1-4)]Gal(b1-4)Glc
# Method in brief: as §1
# [28] = molecular target: Neu5Ac(a2-8)Neu5Ac(a2-8)Neu5Ac(a2-8)Neu5Ac(a2-3)[GalNAc(b1-4)]Gal(b1-4)Glc
# Method in brief: as §1
# [29] = molecular target: Neu5Ac(a2-8)Neu5Gc(a2-3)Gal(b1-4)GlcNAc
# Method in brief: as §1
# [30] = molecular target: Neu5Ac(b2-6)Gal(b1-4)GlcNAc
# Method in brief: as §1
# [31] = molecular target: Neu5Ac(b2-6)GalNAc
# Method in brief: as §1
# [32] = molecular target: Neu5Ac9Ac(a2-3)Gal(b1-3)GlcNAc
# Method in brief: as §1
# [33] = molecular target: Neu5Ac9Ac(a2-3)Gal(b1-4)GlcNAc
# Method in brief: as §1
# [34] = molecular target: Neu5Ac9Ac(a2-6)Gal(b1-4)GlcNAc
# Method in brief: as §1
# [35] = molecular target: Neu5Gc(a2-3)Gal(b1-3)GlcNAc
# Method in brief: as §1
# [36] = molecular target: Neu5Gc(a2-3)Gal(b1-3)[Fuc(a1-4)]GlcNAc
# Method in brief: as §1
# [37] = molecular target: Neu5Gc(a2-3)Gal(b1-4)Glc
# Method in brief: as §1
# [38] = molecular target: Neu5Gc(a2-3)Gal(b1-4)GlcNAc
# Method in brief: as §1
# [39] = molecular target: Neu5Gc(a2-3)Gal(b1-4)GlcNAc(b1-3)Gal(b1-4)GlcNAc(b1-2)Man(a1-3)[Neu5Gc(a2-3)Gal(b1-4)GlcNAc(b1-3)Gal(b1-4)GlcNAc(b1-2)Man(a1-6)]Man(b1-4)GlcNAc(b1-4)GlcNAc
# Method in brief: as §1
# [40] = molecular target: Neu5Gc(a2-3)Gal(b1-4)[Fuc(a1-3)]GlcNAc
# Method in brief: as §1
# [41] = molecular target: Neu5Gc(a2-6)Gal(b1-4)GlcNAc
# Method in brief: as §1
# [42] = molecular target: Neu5Gc(a2-6)GalNAc
# Method in brief: as §1
# [43] = molecular target: Neu5Gc(a2-8)Neu5Ac(a2-3)Gal(b1-4)GlcNAc
# Method in brief: as §1
# [44] = molecular target: Neu5Gc(a2-8)Neu5Gc(a2-3)Gal(b1-4)GlcNAc
# Method in brief: as §1
# [45] = molecular target: Neu5Gc(a2-8)Neu5Gc(a2-3)Gal(b1-4)GlcNAc(b1-3)Gal(b1-4)GlcNAc
# Method in brief: as §1
# [46] = molecular target: Neu5Gc(a2-8)Neu5Gc(a2-6)Gal(b1-4)GlcNAc
# Method in brief: as §1
# [47] = molecular target: Neu5Gc(b2-6)Gal(b1-4)GlcNAc
# Method in brief: as §1
binder,measurement,setting,value
B1,glycan array binding signal (z-score),[1],1.09
same,glycan array binding signal (z-score),[2],-1.86
same,glycan array binding signal (z-score),[3],0.297
same,glycan array binding signal (z-score),[4],-0.734
same,glycan array binding signal (z-score),[5],0.008
same,glycan array binding signal (z-score),[6],-0.811
same,glycan array binding signal (z-score),[7],-0.809
same,glycan array binding signal (z-score),[8],0.741
same,glycan array binding signal (z-score),[9],-0.657
same,glycan array binding signal (z-score),[10],-0.2
same,glycan array binding signal (z-score),[11],-0.549
same,glycan array binding signal (z-score),[12],-0.638
same,glycan array binding signal (z-score),[13],-1.04
same,glycan array binding signal (z-score),[14],0.642
same,glycan array binding signal (z-score),[15],-0.041
same,glycan array binding signal (z-score),[16],-0.241
same,glycan array binding signal (z-score),[17],0.539
same,glycan array binding signal (z-score),[18],0.191
same,glycan array binding signal (z-score),[19],0.136
same,glycan array binding signal (z-score),[20],-0.702
same,glycan array binding signal (z-score),[21],-0.159
same,glycan array binding signal (z-score),[22],0.466
same,glycan array binding signal (z-score),[23],0.84
same,glycan array binding signal (z-score),[24],0.044
same,glycan array binding signal (z-score),[25],-0.895
same,glycan array binding signal (z-score),[26],0.765
same,glycan array binding signal (z-score),[27],0.477
same,glycan array binding signal (z-score),[28],0.81
same,glycan array binding signal (z-score),[29],-0.302
same,glycan array binding signal (z-score),[30],0.374
same,glycan array binding signal (z-score),[31],-0.678
same,glycan array binding signal (z-score),[32],-0.293
same,glycan array binding signal (z-score),[33],-0.725
same,glycan array binding signal (z-score),[34],-0.217
same,glycan array binding signal (z-score),[35],-0.339
same,glycan array binding signal (z-score),[36],1.56
same,glycan array binding signal (z-score),[37],0.42
same,glycan array binding signal (z-score),[38],1.32
same,glycan array binding signal (z-score),[39],0.246
same,glycan array binding signal (z-score),[40],-0.13
same,glycan array binding signal (z-score),[41],-0.333
same,glycan array binding signal (z-score),[42],-0.69
same,glycan array binding signal (z-score),[43],-0.256
same,glycan array binding signal (z-score),[44],-0.635
same,glycan array binding signal (z-score),[45],-0.729
same,glycan array binding signal (z-score),[46],-0.257
same,glycan array binding signal (z-score),[47],-0.461

# Part of the list above, with bars between the fields.
binder | measurement | setting | value
B1 | glycan array binding signal (z-score) | [9] | -0.657
same | glycan array binding signal (z-score) | [43] | -0.256
